In paper PMC9903493:
These are yes or no findings as the source states them, for the method shown. Binding seen in cells or lysates may run through a third protein. Some binding calls cover weakened binding; strength is not graded here.

Protein sequences, listed by entry. Tags and fused reporters are not part of them.
UniProt O00429: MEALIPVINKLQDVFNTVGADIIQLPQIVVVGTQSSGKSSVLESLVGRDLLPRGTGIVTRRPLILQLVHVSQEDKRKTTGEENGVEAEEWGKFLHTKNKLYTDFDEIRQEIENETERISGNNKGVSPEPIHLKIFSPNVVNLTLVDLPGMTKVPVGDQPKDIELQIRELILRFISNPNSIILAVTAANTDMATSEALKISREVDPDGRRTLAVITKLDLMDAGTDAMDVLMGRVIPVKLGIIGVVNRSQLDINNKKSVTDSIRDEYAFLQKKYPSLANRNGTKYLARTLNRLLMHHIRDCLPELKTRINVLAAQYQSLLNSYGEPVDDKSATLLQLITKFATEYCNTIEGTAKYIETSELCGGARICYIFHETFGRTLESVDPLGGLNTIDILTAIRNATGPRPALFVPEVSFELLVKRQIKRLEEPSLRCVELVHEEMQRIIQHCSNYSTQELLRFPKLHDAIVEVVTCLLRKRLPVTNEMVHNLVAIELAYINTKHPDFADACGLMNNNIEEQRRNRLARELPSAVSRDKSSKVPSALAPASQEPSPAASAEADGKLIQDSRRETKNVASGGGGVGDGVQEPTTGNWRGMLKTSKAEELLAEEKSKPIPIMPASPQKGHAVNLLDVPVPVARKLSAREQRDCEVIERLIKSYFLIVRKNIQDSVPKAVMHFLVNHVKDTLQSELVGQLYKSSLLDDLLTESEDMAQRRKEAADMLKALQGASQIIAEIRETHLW

Molecular target: T1, Phosphoglycerate mutase 5 (human (endogenous in HK-2)) (UniProt Q96HS1)
T1 sequence: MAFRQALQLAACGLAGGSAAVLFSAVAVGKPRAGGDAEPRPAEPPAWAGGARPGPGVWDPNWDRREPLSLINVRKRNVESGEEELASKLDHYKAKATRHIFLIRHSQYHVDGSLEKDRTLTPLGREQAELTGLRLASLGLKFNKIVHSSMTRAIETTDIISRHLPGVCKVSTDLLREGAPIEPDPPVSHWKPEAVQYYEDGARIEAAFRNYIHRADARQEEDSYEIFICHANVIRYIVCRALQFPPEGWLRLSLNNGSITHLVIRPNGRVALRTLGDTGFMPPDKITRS
Experiment: co-IP; HK-2 cell lysates incubated with a PGAM5 antibody overnight at 4 °C, protein A/G agarose beads, western blot; normal IgG as negative control; endogenous proteins

- binding: binds
Substance: Dynamin-related protein 1 (from UniProt O00429 1-736)
